{
  "sequences": {"note": "Protein sequences, listed by entry. Tags and fused reporters are not part of them. Lines headed by an entry give the natural chain unless they say otherwise; changes in a name come on top.", "UniProt Q86Y82": "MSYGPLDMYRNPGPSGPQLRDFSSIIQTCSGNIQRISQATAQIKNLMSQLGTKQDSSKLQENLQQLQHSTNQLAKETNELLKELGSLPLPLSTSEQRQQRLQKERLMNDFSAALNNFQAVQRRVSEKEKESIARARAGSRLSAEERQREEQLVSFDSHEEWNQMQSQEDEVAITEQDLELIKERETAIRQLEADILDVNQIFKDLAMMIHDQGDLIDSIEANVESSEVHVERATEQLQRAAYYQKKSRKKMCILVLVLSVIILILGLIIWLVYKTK", "UniProt Q8IUQ4": "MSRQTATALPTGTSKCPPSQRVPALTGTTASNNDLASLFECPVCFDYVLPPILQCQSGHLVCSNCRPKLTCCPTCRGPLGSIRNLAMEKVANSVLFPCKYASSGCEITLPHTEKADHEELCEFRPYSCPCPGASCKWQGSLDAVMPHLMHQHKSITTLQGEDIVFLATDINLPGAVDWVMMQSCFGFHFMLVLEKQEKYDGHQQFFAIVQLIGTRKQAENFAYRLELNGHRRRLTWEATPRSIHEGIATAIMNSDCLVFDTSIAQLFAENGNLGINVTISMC", "UniProt Q8IZ21": "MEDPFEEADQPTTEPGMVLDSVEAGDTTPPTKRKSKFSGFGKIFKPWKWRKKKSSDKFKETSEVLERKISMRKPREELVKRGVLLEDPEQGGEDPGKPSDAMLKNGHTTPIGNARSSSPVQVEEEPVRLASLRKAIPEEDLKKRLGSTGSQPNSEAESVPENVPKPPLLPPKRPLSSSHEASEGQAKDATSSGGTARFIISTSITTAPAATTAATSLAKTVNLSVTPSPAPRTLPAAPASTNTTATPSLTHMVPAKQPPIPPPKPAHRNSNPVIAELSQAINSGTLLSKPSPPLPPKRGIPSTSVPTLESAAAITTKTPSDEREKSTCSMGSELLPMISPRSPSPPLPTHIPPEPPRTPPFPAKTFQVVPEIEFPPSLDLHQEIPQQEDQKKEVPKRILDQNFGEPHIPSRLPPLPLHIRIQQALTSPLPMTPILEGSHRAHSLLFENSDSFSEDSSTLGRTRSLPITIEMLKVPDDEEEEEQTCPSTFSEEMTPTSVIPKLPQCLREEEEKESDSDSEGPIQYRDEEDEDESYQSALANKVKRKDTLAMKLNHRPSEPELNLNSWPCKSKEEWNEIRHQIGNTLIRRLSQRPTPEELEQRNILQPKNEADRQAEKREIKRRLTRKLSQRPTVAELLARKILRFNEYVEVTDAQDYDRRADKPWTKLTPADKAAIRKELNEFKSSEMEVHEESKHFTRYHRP", "UniProt Q8IVB5": "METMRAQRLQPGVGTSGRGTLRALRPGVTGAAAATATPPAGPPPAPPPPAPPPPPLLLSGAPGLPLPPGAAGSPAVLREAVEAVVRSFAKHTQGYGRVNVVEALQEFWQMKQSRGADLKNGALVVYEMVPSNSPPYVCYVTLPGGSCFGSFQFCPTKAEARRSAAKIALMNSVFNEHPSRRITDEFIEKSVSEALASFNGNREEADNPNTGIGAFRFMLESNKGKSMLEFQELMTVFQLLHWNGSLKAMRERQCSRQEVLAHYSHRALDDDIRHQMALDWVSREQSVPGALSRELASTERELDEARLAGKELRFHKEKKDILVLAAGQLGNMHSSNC", "UniProt Q86VS8": "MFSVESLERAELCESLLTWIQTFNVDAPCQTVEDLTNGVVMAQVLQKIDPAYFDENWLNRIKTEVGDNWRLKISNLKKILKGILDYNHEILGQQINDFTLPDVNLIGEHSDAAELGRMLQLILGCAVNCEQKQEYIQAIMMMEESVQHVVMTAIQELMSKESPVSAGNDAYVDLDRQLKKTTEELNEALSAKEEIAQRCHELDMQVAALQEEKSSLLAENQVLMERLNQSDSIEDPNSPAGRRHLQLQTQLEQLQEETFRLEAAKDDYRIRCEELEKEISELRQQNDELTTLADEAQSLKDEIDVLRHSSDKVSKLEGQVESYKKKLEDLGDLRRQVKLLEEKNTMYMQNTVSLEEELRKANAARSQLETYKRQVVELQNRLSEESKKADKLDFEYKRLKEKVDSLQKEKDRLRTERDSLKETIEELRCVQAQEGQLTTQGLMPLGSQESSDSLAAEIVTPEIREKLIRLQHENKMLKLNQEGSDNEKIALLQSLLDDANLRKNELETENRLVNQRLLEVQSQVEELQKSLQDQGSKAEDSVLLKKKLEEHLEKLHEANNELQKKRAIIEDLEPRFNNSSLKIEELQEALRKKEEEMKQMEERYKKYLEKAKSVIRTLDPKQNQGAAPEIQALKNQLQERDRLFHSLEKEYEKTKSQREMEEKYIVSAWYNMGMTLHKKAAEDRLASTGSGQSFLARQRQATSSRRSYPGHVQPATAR", "UniProt Q8IVF7, whole entry": "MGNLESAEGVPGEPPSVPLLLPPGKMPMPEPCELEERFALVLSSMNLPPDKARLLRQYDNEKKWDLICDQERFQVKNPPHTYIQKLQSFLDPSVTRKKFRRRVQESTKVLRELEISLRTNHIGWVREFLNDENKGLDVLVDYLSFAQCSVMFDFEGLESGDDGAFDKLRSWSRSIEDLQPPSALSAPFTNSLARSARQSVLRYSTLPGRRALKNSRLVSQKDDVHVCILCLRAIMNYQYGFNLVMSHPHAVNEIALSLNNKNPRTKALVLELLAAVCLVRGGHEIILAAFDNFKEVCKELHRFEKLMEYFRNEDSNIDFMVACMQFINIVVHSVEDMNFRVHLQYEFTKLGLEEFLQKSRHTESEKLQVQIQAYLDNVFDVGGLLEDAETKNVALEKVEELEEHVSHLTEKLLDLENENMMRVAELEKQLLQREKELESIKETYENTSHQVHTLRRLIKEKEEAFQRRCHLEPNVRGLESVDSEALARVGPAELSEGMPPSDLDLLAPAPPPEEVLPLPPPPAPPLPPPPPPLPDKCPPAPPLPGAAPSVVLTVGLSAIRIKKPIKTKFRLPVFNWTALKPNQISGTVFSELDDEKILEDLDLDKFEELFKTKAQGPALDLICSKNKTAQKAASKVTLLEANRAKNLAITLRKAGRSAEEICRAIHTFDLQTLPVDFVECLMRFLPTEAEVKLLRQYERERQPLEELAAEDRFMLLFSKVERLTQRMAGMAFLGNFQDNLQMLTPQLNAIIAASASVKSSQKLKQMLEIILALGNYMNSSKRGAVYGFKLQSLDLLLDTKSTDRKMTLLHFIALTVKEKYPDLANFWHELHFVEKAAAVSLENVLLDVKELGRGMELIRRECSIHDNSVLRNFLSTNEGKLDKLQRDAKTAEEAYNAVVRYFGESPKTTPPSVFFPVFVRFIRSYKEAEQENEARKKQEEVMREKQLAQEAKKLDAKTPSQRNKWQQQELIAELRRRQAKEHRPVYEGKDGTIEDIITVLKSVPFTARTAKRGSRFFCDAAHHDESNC", "UniProt Q86Y91": "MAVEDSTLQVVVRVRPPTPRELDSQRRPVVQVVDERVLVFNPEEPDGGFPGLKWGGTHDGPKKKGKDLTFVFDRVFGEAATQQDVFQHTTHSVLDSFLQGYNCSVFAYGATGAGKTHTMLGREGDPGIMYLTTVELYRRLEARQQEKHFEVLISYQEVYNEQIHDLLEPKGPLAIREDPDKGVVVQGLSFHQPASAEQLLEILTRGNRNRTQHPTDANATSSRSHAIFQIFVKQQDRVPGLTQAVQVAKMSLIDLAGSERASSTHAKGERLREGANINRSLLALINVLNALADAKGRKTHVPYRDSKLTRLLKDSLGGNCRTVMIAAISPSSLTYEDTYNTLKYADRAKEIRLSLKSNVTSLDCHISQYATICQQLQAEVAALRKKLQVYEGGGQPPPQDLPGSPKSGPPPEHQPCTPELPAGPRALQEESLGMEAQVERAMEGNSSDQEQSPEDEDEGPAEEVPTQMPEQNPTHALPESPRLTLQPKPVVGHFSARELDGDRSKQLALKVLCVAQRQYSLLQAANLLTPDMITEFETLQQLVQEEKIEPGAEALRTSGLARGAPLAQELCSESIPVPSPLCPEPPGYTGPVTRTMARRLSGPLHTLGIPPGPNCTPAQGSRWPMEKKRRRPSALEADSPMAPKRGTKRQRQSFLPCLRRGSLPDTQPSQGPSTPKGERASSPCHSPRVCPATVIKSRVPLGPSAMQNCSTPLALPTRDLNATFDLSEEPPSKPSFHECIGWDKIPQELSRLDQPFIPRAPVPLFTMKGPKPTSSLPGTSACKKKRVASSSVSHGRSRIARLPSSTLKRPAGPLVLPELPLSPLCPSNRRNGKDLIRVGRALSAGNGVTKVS", "UniProt Q8IUF1": "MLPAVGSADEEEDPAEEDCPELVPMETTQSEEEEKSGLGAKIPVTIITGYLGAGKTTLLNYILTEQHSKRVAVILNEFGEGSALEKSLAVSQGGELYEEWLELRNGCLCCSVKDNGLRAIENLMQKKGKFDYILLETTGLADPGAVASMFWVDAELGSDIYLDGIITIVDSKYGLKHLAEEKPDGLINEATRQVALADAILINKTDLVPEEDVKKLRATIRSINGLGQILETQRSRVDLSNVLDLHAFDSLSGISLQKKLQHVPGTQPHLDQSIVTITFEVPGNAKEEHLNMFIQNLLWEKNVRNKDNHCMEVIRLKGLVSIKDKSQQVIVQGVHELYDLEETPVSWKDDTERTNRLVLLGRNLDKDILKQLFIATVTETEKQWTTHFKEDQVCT"},
  "source": "the supplement of paper PMC12819154",
  "about": "“High-throughput peptide-centric local stability assay extends protein–ligand identification to membrane proteins, tissues and bacteria” (Nature Structural & Molecular Biology, 2025)",
  "note": "The list shows a part of the results. Small differences around the control level are noise.",
  "data": [
    {"compound": "Cc1nc(Nc2ncc(C(=O)Nc3c(C)cccc3Cl)s2)cc(N2CCN(CCO)CC2)n1 [dasatinib]", "assay": "log2 fold change of tryptic peptide abundance, ligand vs vehicle (limited proteolysis) (log2 ratio); higher = more trypsin-susceptible (destabilized)", "settings": "ligand concentration: 5 uM; sample: K562 cleared lysate", "values": [
      {"target": "STX12 (peptide sequence: NPGPSGPQLR, peptide start residue: 11) (UniProt Q86Y82)", "log2 fold change": 0.185},
      {"target": "SIAH1 (peptide sequence: QTATALPTGTSKCPPSQR, peptide start residue: 4) (UniProt Q8IUQ4)", "log2 fold change": 0.105},
      {"target": "PHACTR4 (peptide sequence: ILDQNFGEPHIPSRLPPLPLHIR, peptide start residue: 398) (UniProt Q8IZ21)", "log2 fold change": 0.547},
      {"target": "LIX1L (peptide sequence: RITDEFIEK, peptide start residue: 181) (UniProt Q8IVB5)", "log2 fold change": 0.265},
      {"target": "HOOK3 (peptide sequence: VSKLEGQVESYKK, peptide start residue: 313) (UniProt Q86VS8)", "log2 fold change": 0.381},
      {"target": "PARP9 (peptide sequence: EIHLVSNEDPTVAAFK, peptide start residue: 274) (UniProt Q8IXQ6)", "log2 fold change": -0.956},
      {"target": "FMNL3 (peptide sequence: GLESVDSEALAR, peptide start residue: 477) (UniProt Q8IVF7)", "log2 fold change": -0.222},
      {"target": "KIF18B (peptide sequence: RGSLPDTQPSQGPSTPK, peptide start residue: 660) (UniProt Q86Y91)", "log2 fold change": 0.353},
      {"target": "CBWD2 (peptide sequence: LKGLVSIKDK, peptide start residue: 316) (UniProt Q8IUF1)", "log2 fold change": -0.49}
    ]}
  ]
}
